Test results as given in patent US20090008238A1, “TRANSPORTABLE GAS STERILIZATION UNIT, DISPOSABLE GAS GENERATOR, LIGHT ACTIVATED ANTI-INFECTIVE COATING AND METHOD OF DISINFECTION AND STERILIZATION USING CHLORINE DIOXIDE” (THE ARIZONA BD OF REG ON BEHALF OF THE UNIV OF AZ, priority 2004, published 2009).

Test: chlorine dioxide production using photoacid generating (PAG) chemistry and NaClO2
Conditions: about 5 mg PAG ground with about 10 mg NaClO2, Milli-Q H2O, ethanol, sunlight

| Substance | Max. ClO2 [ppm] |
| --- | --- |
| Bis(styryl)benzene | 16 |
| Triphenylamine dimethylsulfate | >250 |
| diphenyliodonium 9,10-dimethoxyanthracenesulfonate | 5.1 |
